{
  "source": "patent US20200179510A1",
  "about": "“LOW DENSITY LIPOPROTEIN RECEPTOR RELATED PROTEIN 5 INHIBITION SUPPRESSES TUMOR FORMATION” (YALE UNIVERSITY, priority 2017, published 2020)",
  "test_system": "DKK2 expression in YUMM1.7 cells",
  "experiment": "DKK2 mRNA by qRT-PCR in YUMM1.7 cells",
  "assay_type": "cell-based, mouse",
  "settings": "5 μM, 24 hours",
  "note": "At least one structure is not confirmed: it was looked up by name or label, or the drawing left a doubt.",
  "data": [
    {"smiles": "COC[C@H]1OC(=O)c2coc3c2[C@@]1(C)C1=C(C3=O)[C@@H]2CCC(=O)[C@@]2(C)C[C@H]1OC(C)=O", "note": "[Wortmannin]", "values": [
      {"measurement": "DKK2 expression (mRNA) in YUMM1.7 cells", "value": "reduces DKK2 expression"}
    ]}
  ]
}
